Values from PubChem BioAssay AID720710 (VTT Finland, 2013)

Assay: 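Genes whose loss lowers DNA synthesis when an oncogene drives replication stress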 (primary screen)
Cell system: human U-2 OS bone cancer cells, parental and a cyclin E (CCNE1) overexpressing line
Reagents: single siRNA against human genes, 1 µM siRNA in the printed spot mix
Time to read-out: 67 h
Challenge: half the arrays: hydroxyurea 2 mM for 16 h, then 3 h recovery; other arrays untreated
Measured: 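DNA synthesis measured as imaged EdU uptake per nucleus (DAPI) at 67 h, normalised to subgrid median and given as z-score versus non-targeting controls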
Direction: EdU z-score, cyclin E line, hydroxyurea and EdU z-score, parental, hydroxyurea: higher = more DNA synthesis than non-targeting controls
This is one part, drawn at random, of about 1,380 reagents. 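One array per condition without replicates; hydroxyurea arrays received 2 mM for 16 h plus 3 h recovery.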 The numbers tell different reagents against one gene apart. Further read-outs or replicates are left out here. No sequences are given here.

Against CIDEA (cell death inducing DFFA like effector a) #1, the entry reads EdU z-score, cyclin E line, hydroxyurea 0.4; EdU z-score, parental, hydroxyurea 1.
After knock-down of CIDEA (cell death inducing DFFA like effector a) #2, the screen gave EdU z-score, cyclin E line, hydroxyurea 1.18; EdU z-score, parental, hydroxyurea 1.81.
After knock-down of H2AC7 (H2A clustered histone 7) #1, the record shows EdU z-score, cyclin E line, hydroxyurea -0.197; EdU z-score, parental, hydroxyurea 0.493.
After knock-down of H2AC7 (H2A clustered histone 7) #2, the screen gave EdU z-score, cyclin E line, hydroxyurea 0.987; EdU z-score, parental, hydroxyurea 0.645.
Knock-down of PRMT7 (protein arginine methyltransferase 7) #1 resulted in: EdU z-score, cyclin E line, hydroxyurea 0.14; EdU z-score, parental, hydroxyurea 3.
Silencing of PRMT7 (protein arginine methyltransferase 7) #2 came out at: EdU z-score, cyclin E line, hydroxyurea 1.42; EdU z-score, parental, hydroxyurea 3.94.
With knock-down of USP1 (ubiquitin specific peptidase 1) #1, the record shows EdU z-score, cyclin E line, hydroxyurea -1.79; EdU z-score, parental, hydroxyurea -2.08.
With knock-down of USP1 (ubiquitin specific peptidase 1) #2, the record shows EdU z-score, cyclin E line, hydroxyurea 2.17; EdU z-score, parental, hydroxyurea 1.65.
Silencing of H2AC20 (H2A clustered histone 20) #1 resulted in: EdU z-score, cyclin E line, hydroxyurea -0.937; EdU z-score, parental, hydroxyurea -0.867.
With knock-down of H2AC20 (H2A clustered histone 20) #2, the screen gave EdU z-score, cyclin E line, hydroxyurea -0.13; EdU z-score, parental, hydroxyurea -0.813.
Silencing of NCAPD3 (non-SMC condensin II complex subunit D3) #1 resulted in: EdU z-score, cyclin E line, hydroxyurea -1.7; EdU z-score, parental, hydroxyurea -1.54.
NCAPD3 (non-SMC condensin II complex subunit D3) #2 scored EdU z-score, cyclin E line, hydroxyurea -1.04; EdU z-score, parental, hydroxyurea 0.46.
Knock-down of ERCC1 (ERCC excision repair 1, endonuclease non-catalytic subunit) #1 gave: EdU z-score, cyclin E line, hydroxyurea -2.04; EdU z-score, parental, hydroxyurea -2.36.
Depletion of ERCC1 (ERCC excision repair 1, endonuclease non-catalytic subunit) #2 came out at: EdU z-score, cyclin E line, hydroxyurea -0.466; EdU z-score, parental, hydroxyurea -0.707.

In a second layout: 3 of the entries above.
{"target": "H2AC20 (H2A clustered histone 20)", "reagent no.": 1, "EdU z-score, cyclin E line, hydroxyurea": -0.937, "EdU z-score, parental, hydroxyurea": -0.867}
{"target": "H2AC20 (H2A clustered histone 20)", "reagent no.": 2, "EdU z-score, cyclin E line, hydroxyurea": -0.13, "EdU z-score, parental, hydroxyurea": -0.813}
{"target": "NCAPD3 (non-SMC condensin II complex subunit D3)", "reagent no.": 1, "EdU z-score, cyclin E line, hydroxyurea": -1.7, "EdU z-score, parental, hydroxyurea": -1.54}

Continued:
For DBF4 (DBF4-CDC7 kinase regulatory subunit) #1, the values are EdU z-score, cyclin E line, hydroxyurea -0.799; EdU z-score, parental, hydroxyurea -1.22.
Against DBF4 (DBF4-CDC7 kinase regulatory subunit) #2 the deposit lists EdU z-score, cyclin E line, hydroxyurea 4.37; EdU z-score, parental, hydroxyurea 0.384.
Knock-down of MYC (MYC proto-oncogene, bHLH transcription factor) #1 resulted in: EdU z-score, cyclin E line, hydroxyurea -0.761; EdU z-score, parental, hydroxyurea 0.294.
MYC (MYC proto-oncogene, bHLH transcription factor) #2 gave EdU z-score, cyclin E line, hydroxyurea -0.432; EdU z-score, parental, hydroxyurea 0.516.
Depletion of ORC2 (origin recognition complex subunit 2) #1 came out at: EdU z-score, cyclin E line, hydroxyurea -0.296; EdU z-score, parental, hydroxyurea -0.0044.
ORC2 (origin recognition complex subunit 2) #2 showed EdU z-score, cyclin E line, hydroxyurea 0.989; EdU z-score, parental, hydroxyurea 0.912.
SMC4 (structural maintenance of chromosomes 4) #1 gave EdU z-score, cyclin E line, hydroxyurea 0.75; EdU z-score, parental, hydroxyurea -0.0402.
SMC4 (structural maintenance of chromosomes 4) #2 gave EdU z-score, cyclin E line, hydroxyurea 0.864; EdU z-score, parental, hydroxyurea 1.86.
RAG1 (recombination activating 1) #1 scored EdU z-score, cyclin E line, hydroxyurea -2.06; EdU z-score, parental, hydroxyurea -1.89.
RAG1 (recombination activating 1) #2 scored EdU z-score, cyclin E line, hydroxyurea -0.312; EdU z-score, parental, hydroxyurea 0.701.
With knock-down of SMC1A (structural maintenance of chromosomes 1A) #1, the screen gave EdU z-score, cyclin E line, hydroxyurea -1.25; EdU z-score, parental, hydroxyurea -3.49.
SMC1A (structural maintenance of chromosomes 1A) #2 gave EdU z-score, cyclin E line, hydroxyurea -0.594; EdU z-score, parental, hydroxyurea -0.0195.
Silencing of H4C3 (H4 clustered histone 3) #1 came out at: EdU z-score, cyclin E line, hydroxyurea -1.96; EdU z-score, parental, hydroxyurea 0.0222.
Against H4C3 (H4 clustered histone 3) #2, the entry reads EdU z-score, cyclin E line, hydroxyurea -0.151; EdU z-score, parental, hydroxyurea 3.31.
After knock-down of H2BC17 (H2B clustered histone 17) #1 the results were EdU z-score, cyclin E line, hydroxyurea -2.34; EdU z-score, parental, hydroxyurea -3.45.
After knock-down of H2BC17 (H2B clustered histone 17) #2 the results were EdU z-score, cyclin E line, hydroxyurea -0.27; EdU z-score, parental, hydroxyurea -1.03.
With knock-down of RPA1 (replication protein A1) #1 the results were EdU z-score, cyclin E line, hydroxyurea -1.31; EdU z-score, parental, hydroxyurea -1.17.
Against RPA1 (replication protein A1) #2, the values are EdU z-score, cyclin E line, hydroxyurea -0.872; EdU z-score, parental, hydroxyurea 1.52.
